Values quoted from earlier work in patent US12594250B2, “Prevention of accumulated tolerance to stimulant medication for the treatment of ADHD” (priority 2021, dated 2026).
Like-named read-outs stand apart in the source and are kept apart here. Some results were stated once for a whole list of compounds, not compound by compound.

Tested on: children with ADHD
Conditions: for duration of effect / action / efficacy: after one administration; for onset of effects: short-acting drugs

Compound | duration of effect / action / efficacy | duration of effect / action / efficacy (listed as Dexedrine) | onset of effects | duration of effect / action / efficacy (listed as Cyclert) | duration of effect / action / efficacy (listed as Ritalin)
C[C@H](N)Cc1ccccc1 [d-amphetamine] | 2 to 3 h | 3 to 4 h | ≤ 30 min |  | 
NC1=NC(=O)C(c2ccccc2)O1 (centres unmarked) [Cylert, pemoline] |  |  |  | 4 to 6 h | 
COC(=O)C(c1ccccc1)C1CCCCN1 (centres unmarked) [methylphenidate] | 2 to 3 h |  | ≤ 30 min |  | 3 to 4 h
CC(N)Cc1ccccc1 (centres unmarked) [amphetamine] | 2 to 3 h |  |  |  | 
